# In the supplement of paper PMC3334620:
# Whole data set: some 33,000 sequences, median “E-score (-0.5 to 0.5)” near -0.0014, cut for the highest 2% near 0.25. Some of the results follow.
# Target: T1, Cad1 (UniProt P24813)
# T1 sequence: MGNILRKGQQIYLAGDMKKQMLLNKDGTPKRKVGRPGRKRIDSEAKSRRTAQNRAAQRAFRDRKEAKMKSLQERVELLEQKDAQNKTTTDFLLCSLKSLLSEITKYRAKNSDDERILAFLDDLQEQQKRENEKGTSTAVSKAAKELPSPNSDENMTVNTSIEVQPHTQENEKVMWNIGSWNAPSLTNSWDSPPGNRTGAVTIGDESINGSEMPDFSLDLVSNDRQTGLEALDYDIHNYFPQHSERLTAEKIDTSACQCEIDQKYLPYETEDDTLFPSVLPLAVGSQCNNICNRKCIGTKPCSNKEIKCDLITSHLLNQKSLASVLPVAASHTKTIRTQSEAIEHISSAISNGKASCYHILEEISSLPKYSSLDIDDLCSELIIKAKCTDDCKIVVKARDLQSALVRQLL
# Assay: PBM E-score (8-mer binding enrichment) (E-score (-0.5 to 0.5)); higher = stronger / more preferred TF binding
# Details: protein concentration: 100 nM; construct: GST-full length
# In short: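 Each ungapped eight-base word and its reverse complement, pooled, received an E-score from the Universal PBM Analysis Suite. Underlying scans, normalised with masliner, recorded fluorescent anti-GST bound to GST-tagged yeast transcription factors. These were applied at about 100-200 nM to universal all-10-mer Agilent arrays double-stranded by primer extension.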
row,Sequence,PBM E-score
1,ACTAGCGA,-0.0405
2,AAACGGCA,-0.131
3,GTCTTCAA,-0.0567
4,GGGGAACC,-0.258
5,TGGTCACA,0.0346
6,CTGACCAA,0.276
7,AGCAACCT,-0.149
8,GCACCCCC,-0.332
9,ACCTGACG,-0.173
10,ACCGGGTG,-0.00614
11,ACCGTGAT,0.0584
12,ACCACGTC,-0.0266
13,CTCTCGTA,-0.149
14,AGCAGTAC,-0.00081
15,GCAATTCC,0.0267
16,ACCACATC,-0.121
17,ATGTTGAG,0.0493
18,AACTTTGG,-0.113
19,AACAGGTG,-0.18
20,CCTCAGAC,-0.12
21,ACAATACC,0.154
22,GGGGTACA,-0.168
23,CCAAATCG,0.0163
24,GCAATGGA,-0.0124
25,ACTACCGG,-0.231

row,Sequence,PBM E-score
1,CTGGGGCC,-0.291
2,AAACAAGT,-0.06
3,AAGTGGCA,-0.0104
4,GATGCCCC,-0.318
5,AGCCCCGC,-0.0779
6,CGCTAATA,0.118
7,GTTAAACA,0.166
8,CTGCCTCA,-0.232
9,GATTAGCA,0.217
10,ATTGACCA,-0.0558
11,TCGCAACA,0.012
12,ACTGCTTA,0.132
13,CACCATTA,-0.025
14,ACCACAGA,-0.0731
15,AAATCGTC,0.0296
16,AGAGCCAG,-0.239
17,CATCTCGG,0.0454
18,ATATGACG,0.0364
19,CTAAAGAA,0.122
20,ACCGCGGG,0.186
21,AACGCTTC,-0.0949
22,AACCACCA,-0.0697
23,CTCTAGAC,-0.168
24,ACATACTA,0.111
25,ATGAAAAG,0.0321

row,Sequence,PBM E-score
1,AGCCGCAT,-0.0263
2,ACGTCCCT,0.0045
3,ACGATAAA,0.0169
4,ATATCTGC,0.0177
5,ACTGCCCG,-0.0199
6,CTCAAACA,0.0329
7,TAGGCCCA,-0.0715
8,AGAGGCTG,-0.39
9,AAAGTAGG,-0.00063
10,GTTGACTA,0.0212
11,ACATGTAA,0.196
12,AACTCTCT,0.0449
13,GCCTTGGA,0.0419
14,TAAATTAA,0.131
15,ACGACAAC,0.187
16,ATGTGAAC,0.0102
17,AGCGCTTA,0.336
18,ATATTAAT,0.368
19,ATCTAGCA,0.0899
20,GGCGCTTA,-0.0696
21,ATTGCACC,-0.0984
22,CCTTGATA,0.12
23,AAGTCAAA,-0.0173
24,TGAGGACA,0.123
25,AAGCACGG,0.0126

row,Sequence,PBM E-score
1,GCTCGCAC,0.141
2,CCTACAGC,0.0508
3,CGGCCGGA,-0.0342
4,TCTAACCA,0.0533
5,CCGCTTAG,-0.00568
6,CCCACAGG,-0.311
7,AAACATTA,0.0245
8,AACGGCAC,-0.0786
9,CTCCGAAG,-0.0402
10,CAGAAATA,0.12
11,CTACAGAA,0.0272
12,ATCATCGC,0.0216
13,CCTTTGTC,0.0499
14,GAGCTCGA,0.16
15,ATGCCCTC,-0.0803
16,TAGGCACA,-0.0581
17,GTGATTTA,0.153
18,TCCGGGAA,0.166
19,CAGAGATC,-0.0207
20,CCCTTGTA,-0.211
21,GCATGCCC,0.109
22,AAAAGGAG,-0.234
23,GGGTTGAC,-0.148
24,AGACGACG,-0.0598
25,ATCCAGTA,-0.0384

row,Sequence,PBM E-score
1,AATTTTTG,0.082
2,AATCGTGG,0.163
3,CCCTCACG,-0.0732
4,GCCCATCA,-0.129
5,AGACCTTC,-0.149
6,CATCTTCA,-0.249
7,CAGAGATG,-0.0243
8,CCTGACTC,-0.139
9,CCCAAGAC,0.0763
10,CTCTCGCA,-0.272
11,AACTGAAA,0.149
12,GCGATCCC,-0.162
13,GCGCCCGC,-0.125
14,TCAATTGA,0.0289
15,CATCGGTC,-0.0321
16,CCAGCGCG,-0.015
17,GCAAGAAC,0.0479
18,CTTGTCGC,-0.136
19,TATCGAAA,0.155
20,TACGCATA,0.136
21,AACTAAAG,0.2
22,AGGGAACA,-0.021
23,ACTGAGAT,0.0263
24,ATCAAGGG,0.0452
25,AAATATGG,-0.00169

row,Sequence,PBM E-score
1,CTTGGGCC,-0.279
2,CGAGCACC,-0.163
3,ACGACGAT,-0.0571
4,CAGGATTA,0.192
5,GTATCAAC,-0.0681
6,ACTGGCAA,-0.0398
7,ACCGTAAA,0.0475
8,AAATGTGG,0.0872
9,GCGCAAAA,0.241
10,AAACGTAT,0.134
11,GGACCCCC,-0.361
12,GAGCGCGC,0.186
13,AAGTTCAT,0.0937
14,CACGTTGC,-0.135
15,AGGGAGTA,-0.0843
16,AGGCGGCC,-0.121
17,AGGTCGAC,0.156
18,ACTTGCAC,0.0617
19,AGACCACC,-0.0828
20,TATACGAA,0.173
21,GGCCAACC,-0.0465
22,AATTCCAC,0.111
23,ACACTCCT,-0.137
24,AATGATAA,0.202
25,ATCGACGC,0.104

row,Sequence,PBM E-score
1,CCTTAGCA,-0.06
2,AGAACTGA,0.164
3,GCGATACC,-0.081
4,TCTGGCCA,0.129
5,ATGGGGCG,-0.0183
6,GGATTAAA,0.0722
7,GCGGTTGA,0.101
8,ATTTAGTA,0.293
9,GGCCAGAC,0.179
10,CGTGGTTA,0.0164
11,CCGCCTTA,-0.0422
12,CCGCACGG,-0.0623
13,ACAATGCA,0.151
14,CAGGTTGG,0.0251
15,CGAAAGCC,-0.327
16,ATGTTCAA,-0.0453
17,AGATTCCA,0.217
18,AAGTTCCT,0.0701
19,AGTACTAA,0.0541
20,AAGACACG,0.0251
21,AGTCCGTC,0.082
22,ACTGTTGA,-0.0584

# Look-ups from above.
# Entry of ATTTAGTA under PBM E-score: 0.293
# Entry of CCGCCTTA under PBM E-score: -0.0422
# Entry of CAGGTTGG under PBM E-score: 0.0251
# Entry of AGTACTAA under PBM E-score: 0.0541

# Reformatted: entries from further up
row	Sequence	PBM E-score
3	GCGATACC	-0.081
10	CGTGGTTA	0.0164
18	AAGTTCCT	0.0701
22	ACTGTTGA	-0.0584
